Reference: PubChem BioAssay AID652259 (Drosophila RNAi Screening Center, 2013)

Screen: 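Knock-downs that push a Wingless-driven reporter up or down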 (primary screen)
System: Drosophila clone 8 imaginal disc epithelial cells
Reagent: long dsRNA against Drosophila genes
Challenge: pathway stimulated by co-transfected Wingless expression plasmid
Read-out: 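Dual luciferase reads per well after Wingless plasmid stimulation: reporter firefly light and Renilla control light; activity is firefly divided by Renilla, a ratio not deposited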
Direction: firefly reporter light: higher = more Wg reporter light, before normalisation; Renilla control light: higher = more transfected or surviving cells
Hit rule: 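a knock-down is a candidate when at least two out of four statistical tests show it departing from its plate mean; one test alone signals a weak candidate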
Calls: active = candidate regulator (raises or lowers reporter); inactive = not a candidate
In all, the deposit lists about 22,000 reagents; this is a random part of those that have a named target and a result. Over the whole deposit, 233 (1.1%) are marked active. 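Light values are raw, unnormalised plate reads; the ratio scores behind the reporter calls were not deposited.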 A number with no mark means an inactive call. Reagents against one gene are numbered here. Not given: the amount of reagent, the time to read-out, the dose of the treatment.

TwdlG → firefly reporter light, replicate 1: 15332; Renilla control light, replicate 1: 5351
xit → firefly reporter light, replicate 1: 2469; firefly reporter light, replicate 2: 11221; Renilla control light, replicate 1: 592; Renilla control light, replicate 2: 3654
Gbeta76C → firefly reporter light, replicate 1: 7323; Renilla control light, replicate 1: 3393
CG31176 #1 → firefly reporter light, replicate 1: 30688; Renilla control light, replicate 1: 4695
CG31176 #2 → firefly reporter light, replicate 1: 33104; Renilla control light, replicate 1: 5936
CG13473 → firefly reporter light, replicate 1: 6712; Renilla control light, replicate 1: 2116
CG2663 → firefly reporter light, replicate 1: 7904; Renilla control light, replicate 1: 1958
S6k → firefly reporter light, replicate 1: 1684; firefly reporter light, replicate 2: 6643; Renilla control light, replicate 1: 1652; Renilla control light, replicate 2: 4163
Dhpr → firefly reporter light, replicate 1: 3784; firefly reporter light, replicate 2: 9594; Renilla control light, replicate 1: 1770; Renilla control light, replicate 2: 4169
Ir56b → firefly reporter light, replicate 1: 6171; Renilla control light, replicate 1: 2093
pdm3 #1 → firefly reporter light, replicate 1: 4097; firefly reporter light, replicate 2: 9801; Renilla control light, replicate 1: 1010; Renilla control light, replicate 2: 3648
pdm3 #2 → firefly reporter light, replicate 1: 3238; firefly reporter light, replicate 2: 10328; Renilla control light, replicate 1: 976; Renilla control light, replicate 2: 3539
pdm3 #3 → firefly reporter light, replicate 1: 3.83e5; firefly reporter light, replicate 2: 3.52e5; Renilla control light, replicate 1: 67253; Renilla control light, replicate 2: 70182
CG32111 (retired record) → firefly reporter light, replicate 1: 3088; Renilla control light, replicate 1: 1152
CG30278 → firefly reporter light, replicate 1: 5.48e5; firefly reporter light, replicate 2: 6.27e5; Renilla control light, replicate 1: 2.22e5; Renilla control light, replicate 2: 2.40e5
CG5866 → firefly reporter light, replicate 1: 8160; Renilla control light, replicate 1: 1578
Karybeta3 → firefly reporter light, replicate 1: 5079; Renilla control light, replicate 1: 1536
Scgbeta → firefly reporter light, replicate 1: 14059; Renilla control light, replicate 1: 2449
B9d1 → firefly reporter light, replicate 1: 15473; Renilla control light, replicate 1: 4466
TTLL6A → firefly reporter light, replicate 1: 8689; Renilla control light, replicate 1: 3248
CG17375 → firefly reporter light, replicate 1: 3060; firefly reporter light, replicate 2: 6695; Renilla control light, replicate 1: 1138; Renilla control light, replicate 2: 1888
Taf13 → firefly reporter light, replicate 1: 2496; firefly reporter light, replicate 2: 5649; Renilla control light, replicate 1: 699; Renilla control light, replicate 2: 2172
Chd3 → reporter change call, replicate 1: Wg reporter activity raised (active); firefly reporter light, replicate 1: 26810; Renilla control light, replicate 1: 2393
Tbh → firefly reporter light, replicate 1: 19173; Renilla control light, replicate 1: 8320
CG9121 → firefly reporter light, replicate 1: 1466; firefly reporter light, replicate 2: 6563; Renilla control light, replicate 1: 556; Renilla control light, replicate 2: 1736
Ssl → firefly reporter light, replicate 1: 2322; firefly reporter light, replicate 2: 6851; Renilla control light, replicate 1: 728; Renilla control light, replicate 2: 2180
CG33169 → firefly reporter light, replicate 1: 20108; Renilla control light, replicate 1: 6176
Lsm11 → firefly reporter light, replicate 1: 4369; firefly reporter light, replicate 2: 9318; Renilla control light, replicate 1: 1024; Renilla control light, replicate 2: 4203
CG13428 → firefly reporter light, replicate 1: 10099; Renilla control light, replicate 1: 2929
Spn #1 → firefly reporter light, replicate 1: 2140; Renilla control light, replicate 1: 1125
Spn #2 → firefly reporter light, replicate 1: 13408; Renilla control light, replicate 1: 3334
Spn #3 → firefly reporter light, replicate 1: 5052; Renilla control light, replicate 1: 1981

Sorted by “firefly reporter light, replicate 1” (high to low): 2 of the entries above.
CG31176 #2 → firefly reporter light, replicate 1: 33104; Renilla control light, replicate 1: 5936
CG13473 → firefly reporter light, replicate 1: 6712; Renilla control light, replicate 1: 2116
